# Experimental data taken from PubChem BioAssay AID1347076 (National Center for Advancing Translational Sciences (NCATS), 2019).
# About 13,000 (3.2%) of roughly 400,000 compounds were called active. The shares of active, inactive and inconclusive entries below differ from those in the screen. Calls follow the shape of the dose curve; as a rule, active = well fitted cell-killing curve with a large enough effect; inconclusive = small, poorly fitted or top-dose-only effect, or effect the other way; inactive = flat fitted curve, though single readings scatter. Potencies of inconclusive entries are doubtful fits and often do not repeat.
# Assay: qHTS assay for MDR1-selective chemotherapeutics: Primary screen using the drug-selected MDR subline cells KB-V1; also: nearly all actives have a fitted effect of over 60% in size
# Details: KB-V1 MDR cells viability, CellTiter-Glo, 72 h; activity change, negative = cytotoxicity: at 46.1 µM (top of the series)
# How it was run: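 In this primary screen, KB-V1 cells overexpressing P-gp are incubated with library compounds (lowest to highest concentration) for 72 h at 37 degrees C before a luminescent ATP viability read.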
# % is scaled to controls: 0 for no effect and ±100 for the full control effect; potency is read from the fitted curve at half-maximal effect.
Compound,"activity change, negative = cytotoxicity",Potency
CSc1ccccc1NC(=O)CSc1cccc[n+]1[O-],inactive: -1.93%,–
O=C(OCc1cn([C@@H]2CN(CC3CCCCC3)[C@@H](c3ccc(Cl)cc3)C[C@H]2O)nn1)c1ccccc1,–,"inconclusive: 23.1 µM [rising, single point]"
Cc1ccccc1S(=O)(=O)NNC(=O)C(=O)NNc1ccccn1,–,"inconclusive: 29.1 µM [cytotoxic, partial curve, poor fit]"
O=C(c1cc(=O)c2ccccc2o1)N1CCN(c2cccc(Cl)c2)CC1,–,"inconclusive: 11.6 µM [cytotoxic, partial curve]"
COc1ccc(CC(=O)NCCc2csc(-c3cccc(F)c3)n2)cc1OC,inactive: 13.1%,–
CN(C(=O)CC(NC(=O)c1ccccc1Cl)c1ccccc1)c1ccccc1 (stereo not drawn),–,"inconclusive: 36.6 µM [cytotoxic, single point]"
COc1ccc(Nc2nc(-c3c(C)nc4ncccn34)cs2)cc1,inactive: -46.1%,–
Cn1c(=O)n(C)c2cc([N+](=O)[O-])c(N3CCN(C(=O)c4ccc(F)cc4)CC3)cc21,–,"inconclusive: 10.3 µM [cytotoxic, partial curve]"
O=S1(=O)N[C@@H](Cc2ccccc2)COc2cc(N3CCC[C@@H]3CO)ccc21,–,"inconclusive: 18.4 µM [cytotoxic, single point]"
CCOC(=O)c1ccc(-n2c(N)c(C(=O)NCc3ccco3)sc2=S)cc1,–,"inconclusive: 16.4 µM [cytotoxic, single point]"
CC(=O)c1cnc2nc(SCc3ccc(C)cc3)nn2c1C,–,"inconclusive: 14.6 µM [cytotoxic, partial curve]"
O=C1CCCN1C(=O)CSc1ccc2ccccc2n1,–,"inconclusive: 7.31 µM [rising, partial curve, poor fit]"
Cc1ccc(S(=O)(=O)Nc2cc3c(C(=O)OCc4ccccc4)c(C)oc3c3ccccc23)cc1,inactive: 0%,–
S=C(NCc1ccco1)Nc1ccc(Cl)cn1,inactive: 9.32%,–
COc1ccc(C(=O)COc2ccc(C)cc2NC(C)=O)cc1,–,"inconclusive: 6.51 µM [cytotoxic, full curve]"
CCCOC(=O)C1=C(C)NC2=C(C(=O)CCC2)C1c1cccs1 (stereo not drawn),–,active: 23.1 µM
Cc1ccc(NC(=O)CSc2n[nH]c(-c3ccco3)n2)c(C)c1,–,"inconclusive: 2.91 µM [cytotoxic, partial curve, poor fit]"
COc1cccc(CN(C)C(=O)/C=C/c2ccc(S(=O)(=O)N3CCCCCC3)cc2)c1,–,"inconclusive: 6.51 µM [cytotoxic, partial curve]"
O=S(=O)(c1ccccc1)N1CCC2(CC1)OCCN2S(=O)(=O)c1cccs1,–,"inconclusive: 18.4 µM [cytotoxic, single point]"
COc1cccc(-c2nc(CS(=O)(=O)CC(=O)NCCCc3ccccc3)c(C)o2)c1,inconclusive: 0%,–
CN(C)CCNc1ncnc2c1ncn2[C@H]1CN(Cc2ccco2)C[C@@H](CO)O1,inactive: 9.34%,–
O=C(CCCCCCCCN1C(=O)c2ccccc2C1=O)N1CCOCC1,–,"inconclusive: 14.6 µM [cytotoxic, partial curve]"
Cc1nc(SCC(=O)c2ccc(F)cc2)n[nH]1,–,"inconclusive: 29.1 µM [rising, single point]"

# Taken from above:
# O=C(c1cc(=O)c2ccccc2o1)N1CCN(c2cccc(Cl)c2)CC1 | Potency: inconclusive: 11.6 µM [cytotoxic, partial curve]
# CSc1ccccc1NC(=O)CSc1cccc[n+]1[O-] | activity change, negative = cytotoxicity: inactive: -1.93%
# O=S1(=O)N[C@@H](Cc2ccccc2)COc2cc(N3CCC[C@@H]3CO)ccc21 | Potency: inconclusive: 18.4 µM [cytotoxic, single point]

# Remaining list, next part

Compound,"activity change, negative = cytotoxicity",Potency
Cc1ccc(CSc2ncccc2C(=O)O)cc1,–,"inconclusive: 9.2 µM [rising, partial curve]"
CC1(C(=O)Nc2ccc3c(c2)OCCO3)CCN1Cc1ccc(-c2ccccn2)cc1 (stereo not drawn),–,"inconclusive: 16.4 µM [cytotoxic, partial curve]"
Cc1ccc(NC(=O)c2ccccc2SCC(=O)N2CCCC2)cc1S(=O)(=O)N(C)C,–,"inconclusive: 6.51 µM [cytotoxic, partial curve, poor fit]"
CC(C)(CNC(=O)c1cccc(F)c1)CNC(=O)c1cccc(F)c1,–,"inconclusive: 4.11 µM [cytotoxic, partial curve, poor fit]"
CCOC(=O)N1CCC(Nc2nc3ccccc3n3nnnc23)CC1,–,active: 2.31 µM
COc1ccc(C(C)=O)cc1CN1C(=O)C(C)ON=C1c1cccc(C(F)(F)F)c1 (stereo not drawn),–,"inconclusive: 9.2 µM [cytotoxic, partial curve, poor fit]"
Cn1c(C(=O)N2CCCC(C(=O)c3ccc(C(F)(F)F)cc3)C2)cc(=O)n(C)c1=O (stereo not drawn),–,"inconclusive: 29.1 µM [rising, single point]"
Cc1ccc(NC(=O)c2cc3cccc([N+](=O)[O-])c3[nH]2)cc1,inactive: 3.38%,–
COc1cc2nc(N(CCCN(C)C)C(=O)c3ccc(S(=O)(=O)N4CCc5ccccc5C4)cc3)sc2cc1OC,inactive: 3.56%,–
CCOc1ccc(NC(=S)Nc2cccc3ccccc23)cc1,–,"inconclusive: 29.1 µM [rising, single point]"
Fc1cccc(NC(=S)N2CCCC2)c1,–,"inconclusive: 1.84 µM [cytotoxic, partial curve, poor fit]"
COc1ccccc1N1CCN(C(=O)C(C)NC(=O)c2cccc([N+](=O)[O-])c2)CC1 (stereo not drawn),–,"inconclusive: 16.4 µM [cytotoxic, partial curve, poor fit]"
O=S(=O)(NC1=NCCCCC1)c1cc(F)ccc1F,inconclusive: -5.24%,–
CN(CC(=O)Nc1ccc(SC(F)F)cc1)C1CCCCC1,–,"inconclusive: 23.1 µM [cytotoxic, single point]"
CC1=C(C(=O)OCc2ccccc2)C(c2ccccc2Cl)NC(=O)N1CCCCCC(=O)O (stereo not drawn),inactive: -12.8%,–
Cn1cc(SCC(=O)Nc2nc3ccccc3s2)c2ccccc21,–,"inconclusive: 23.1 µM [cytotoxic, single point]"
Cc1c(OCc2ccccc2)cccc1OCc1ccccc1,–,"inconclusive: 9.2 µM [rising, partial curve]"
CC(=O)c1cccc(NC(=O)c2ccc(-c3ccccc3[N+](=O)[O-])o2)c1,–,"inconclusive: 16.4 µM [cytotoxic, partial curve]"
CCCc1cnc(Nc2nc(C(N)Cc3ccc(OC)cc3)cs2)nc1 (stereo not drawn),–,"inconclusive: 29.1 µM [cytotoxic, single point]"
Cc1ccc(Cl)cc1NC(=O)Cn1cc(S(=O)(=O)Cc2ccccc2Cl)c2ccccc21,–,"inconclusive: 20.6 µM [cytotoxic, single point]"
COc1cccc(/C=C/c2nccc3ccccc23)c1OC,–,"inconclusive: 18.4 µM [cytotoxic, single point]"
O=C(NC(=S)NC1CCSC1=O)c1cccs1 (stereo not drawn),inactive: -4.7%,–
CCc1ccc(C(=O)c2cn(CC(=O)Nc3ccc(OC)c(Cl)c3)c3nc(C)ccc3c2=O)cc1,inconclusive: -32.3%,–

Compound,"activity change, negative = cytotoxicity",Potency
O=C(CCn1c(=O)[nH]c2ccsc2c1=O)N1CCN(Cc2ccc3c(c2)OCO3)CC1,–,"inconclusive: 20.6 µM [rising, partial curve, poor fit]"
CCn1c(C)nc2cc(C(=O)NNC(=O)c3ccc(C)cc3)ccc21,inactive: 23.2%,–
NC(=O)c1cc2c3ccccc3ccn2c1-c1ccccc1,–,active: 0.651 µM
COC(=O)C[C@@H]1C[C@H]2c3cc(N(C)C)ccc3O[C@H]2[C@H](CO)O1,inactive: 11.5%,–
O=[N+]([O-])c1cccc(S(=O)(=O)NCCCn2ccnc2)c1,–,"inconclusive: 29.1 µM [rising, single point]"
CCOCc1nc2nc(Cl)c(Cl)nc2[nH]1,–,"inconclusive: 16.4 µM [rising, partial curve]"
COc1cccc2cc(C(=O)NC(C)C3CCCO3)c(=O)oc12 (stereo not drawn),–,"inconclusive: 23.1 µM [cytotoxic, single point]"
Oc1c(C(c2ccc(Cl)cc2)N2CCOCC2)sc2nc(-c3ccco3)nn12 (stereo not drawn),inactive: 29.3%,–
CC1CCN(S(=O)(=O)c2ccc3nc(N4CCN(c5ccccc5)CC4)ccc3c2)CC1,–,"inconclusive: 20.6 µM [rising, single point]"
COc1cc(CNC(C)c2ccccc2)cc(Cl)c1OCC(=O)Nc1ccccc1 (stereo not drawn),inactive: -1.83%,–
COc1ccccc1OCC(=O)Nc1cc(-c2ccc(C)cc2)no1,inactive: 0%,–
Nc1nonc1C(=O)NCCNCc1cc(Br)ccc1OCc1ccccc1F,–,"inconclusive: 7.31 µM [cytotoxic, partial curve]"
CCCCn1c(CCNC(=O)c2cccs2)nc2ccccc21,–,"inconclusive: 25.9 µM [cytotoxic, single point]"
COc1cnc(-c2ccccn2)nc1Oc1ccc(Cl)cc1,–,"inconclusive: 10.3 µM [cytotoxic, partial curve]"
COc1cccc([C@H]2Nc3ccc(S(=O)(=O)Nc4cc(C)ccc4C)cc3[C@H]3C=CC[C@H]32)c1,–,"inconclusive: 25.9 µM [cytotoxic, partial curve, poor fit]"
COCCC(=O)N1CCC(Oc2ccc(C(=O)N(C)CCCC3CCCC3)cc2)CC1,–,"inconclusive: 20.6 µM [cytotoxic, single point]"
O=C(Nc1ccc2c(c1)[C@H]1C[C@@H](CC(=O)N3CCOCC3)O[C@@H](CO)[C@H]1O2)C1CCOCC1,inactive: 7.86%,–
CCOc1ccc(Br)cc1CNCCN1CCOCC1,–,"inconclusive: 14.6 µM [cytotoxic, partial curve, poor fit]"
Cc1ccc(C2=NN(C(=O)COc3ncnc4ccccc34)C(c3ccco3)C2)cc1 (stereo not drawn),–,"inconclusive: 6.51 µM [cytotoxic, partial curve]"
O=C(Cn1ncc2c1-c1ccccc1OC2)Nc1nc2ccccc2s1,–,"inconclusive: 23.1 µM [rising, single point]"
CC(=O)c1cc(-c2ccc(F)cc2)n(CC(=O)NCc2ccc(C)cc2)c1C,inactive: -7.58%,–
CCOC(=O)N1CCN(C(=O)c2ccc3c(=O)n(Cc4ccc(Cl)cc4)c(=S)[nH]c3c2)CC1,–,active: 13 µM

# Whole records from above.
# `CCc1ccc(C(=O)c2cn(CC(=O)Nc3ccc(OC)c(Cl)c3)c3nc(C)ccc3c2=O)cc1` in the list: activity change, negative = cytotoxicity: inconclusive: -32.3%
# `COc1cccc([C@H]2Nc3ccc(S(=O)(=O)Nc4cc(C)ccc4C)cc3[C@H]3C=CC[C@H]32)c1` in the list: Potency: inconclusive: 25.9 µM [cytotoxic, partial curve, poor fit]
